Where a chain is given by its changes, count along the chain named. Results are given in words; binding and its absence hold for the method and conditions named.
B1: anti-Tau pS422 antibody Mab 019 (antibody, V domains shown)
VH: QSVEESGGRLVTPGTPLTLTCTVSGIDLSSYTMNWVRQAPGKGLDWIGFINSGGYTSYASWTRGRFTISKTSTTVDLRITSPTTEDTATYFCARYGGGSGFDLWGPGTLVTVSS
VL: QVLTQTASSVSAAVGGTVTINCQSSQSVYNNRLAWYQQKPGQPPKLLIYKASTLASGVPSRFKGSGSGTQFTLTISDLECDDAATYYCAGGYINIFAFGGGTEVVVK
B2: anti-Tau pS422 antibody Mab 005 (antibody, V domains shown)
VH: QSVEESGGRLVTPGTPLTLTCTVSGLSLSSNAINWVRQAPGKGLEWIGYISTSGNTYYASWAKGRFTISKTSTTVDLKITSPTTEDTATYFCGRGDLWGPGTLVTVSS
VL: QVLTQTASPVSAAVGSTVTINCQASQSVYKNNYLAWFQQKPGQPPKRLIYSASTLASGVSSRFKGSGSGTQFTLTISDVQCDDAATYYCLGSCDSSSNNCVAFGGGTEVVVK
B3: anti-Tau pS422 antibody Mab 020 (antibody, V domains shown)
VH: QSVEESGGRLVTPGTPLTLTCKVSGFSLSSYDMNWVRQAPGKGLEWVGAISTGGNTYYASWAKGRFTISKTSTTVTLTITSPTTADTATYFCARGSSIWGPGTLVTVSL
VL: B2 VL with A35R, F37Y, S51T, S92G, C93Y, S95C, S96N, N98A, N99D, V101W
B4: anti-Tau pS422 antibody Mab 085 (antibody, V domains shown)
VH: QSVEESGGRLVTPGTPLTLTCTVSGLSLSSNAINWVRQAPGKGLEWIGYIAVSGNTYYASWAKGRFTISKASTTVDLKMTSPTAEDTGTYFCGKSNIWGPGTLVTVSL
VL: QVLTQTASPVSAAVGITVTISCQSSQSVRTNKLAWFQQKPGQPPKRLIYSASTLDSGVPSRFSASGSGTQFTLTISDVQCDDAATYYCLGYYDCSIADCVAFGGGTEVVVK
B5: anti-Tau pS422 antibody Mab 086 (antibody, V domains shown)
VH: B4 VH with L26F
VL: B4 VL with A7T, I16S, S56F, Y92F
B6: anti-Tau pS422 antibody Mab 097 (antibody, V domains shown)
VH: QSVEESGGRLVTPGTPLTLTCTVSGIDLSSYSITWVRQAPGKGLEYIGFIGTGGSTYYASWAKGRFTISRTSTTVDLKITSPTTEDTATYFCARGGDLWGPGTLVTVSS
VL: QVLTQTASSVSAAVGGTVTINCQSSQNVYNNNKLAWFQQKPGQPPKRLIYGASTLASGVSSRFKGSGSGTQFTLTISDLECDDAATYYCLGGYSGNIYTFGGGTEVVVK

The binders below were run against KLH (key hole limpet hemocyanine) (assay: condition: 1:5 dilution of the cell culture supernatants; ELISA, single-point measurement).

Row | binding | Binder
1 | no binding | B1
2 | no binding | B2
3 | no binding | B3
4 | no binding | B4
5 | no binding | B5
6 | no binding | B6
